These results are taken from publication PMC7015924.

No constants are given. Whether binding was seen depends on the method and setting. In cells and extracts the contact can be indirect. Some binding calls cover weakened binding; strength is not graded here. Where a sequence is shown, tags or fusion partners need not be part of it.

The target in test [1] is T1, FLAG-tagged slicer-Piwi (Piwi K617H/A625S/V653E/K818H mutant) (Drosophila melanogaster) (UniProt Q9VKM1).
T1 sequence: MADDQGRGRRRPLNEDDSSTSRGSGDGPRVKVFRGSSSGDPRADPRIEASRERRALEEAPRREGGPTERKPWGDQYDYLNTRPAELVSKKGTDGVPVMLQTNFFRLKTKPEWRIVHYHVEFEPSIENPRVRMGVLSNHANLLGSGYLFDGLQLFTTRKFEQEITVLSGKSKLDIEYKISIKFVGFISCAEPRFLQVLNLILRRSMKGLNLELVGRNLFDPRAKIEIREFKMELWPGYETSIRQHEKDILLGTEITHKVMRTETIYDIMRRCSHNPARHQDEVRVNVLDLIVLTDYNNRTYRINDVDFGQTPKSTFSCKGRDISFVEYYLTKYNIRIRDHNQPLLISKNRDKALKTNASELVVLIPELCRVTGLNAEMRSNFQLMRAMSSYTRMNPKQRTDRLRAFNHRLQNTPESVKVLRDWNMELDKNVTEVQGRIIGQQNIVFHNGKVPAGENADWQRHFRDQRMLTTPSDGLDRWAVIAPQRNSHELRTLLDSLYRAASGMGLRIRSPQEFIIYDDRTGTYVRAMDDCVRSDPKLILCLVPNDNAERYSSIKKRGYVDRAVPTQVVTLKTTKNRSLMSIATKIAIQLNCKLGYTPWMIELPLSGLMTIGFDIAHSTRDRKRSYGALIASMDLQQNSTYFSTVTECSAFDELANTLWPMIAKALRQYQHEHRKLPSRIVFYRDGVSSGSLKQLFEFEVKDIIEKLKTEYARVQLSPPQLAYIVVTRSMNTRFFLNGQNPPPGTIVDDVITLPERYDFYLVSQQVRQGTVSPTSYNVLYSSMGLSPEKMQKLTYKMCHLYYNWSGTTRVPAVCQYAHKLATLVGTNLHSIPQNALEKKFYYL
As to the kind of experiment: co-IP; FLAG-tagged Piwi expressed in endogenous Piwi-depleted OSCs, immunoprecipitated with anti-FLAG beads; lysates and immunoprecipitates analysed by western blotting (anti-Arx). In general terms: In western blotting, separated proteins are transferred to a membrane and probed.

The target of test [2] is T2, FLAG-tagged wild-type Piwi (Drosophila melanogaster) (UniProt Q9VKM1).
T2 sequence: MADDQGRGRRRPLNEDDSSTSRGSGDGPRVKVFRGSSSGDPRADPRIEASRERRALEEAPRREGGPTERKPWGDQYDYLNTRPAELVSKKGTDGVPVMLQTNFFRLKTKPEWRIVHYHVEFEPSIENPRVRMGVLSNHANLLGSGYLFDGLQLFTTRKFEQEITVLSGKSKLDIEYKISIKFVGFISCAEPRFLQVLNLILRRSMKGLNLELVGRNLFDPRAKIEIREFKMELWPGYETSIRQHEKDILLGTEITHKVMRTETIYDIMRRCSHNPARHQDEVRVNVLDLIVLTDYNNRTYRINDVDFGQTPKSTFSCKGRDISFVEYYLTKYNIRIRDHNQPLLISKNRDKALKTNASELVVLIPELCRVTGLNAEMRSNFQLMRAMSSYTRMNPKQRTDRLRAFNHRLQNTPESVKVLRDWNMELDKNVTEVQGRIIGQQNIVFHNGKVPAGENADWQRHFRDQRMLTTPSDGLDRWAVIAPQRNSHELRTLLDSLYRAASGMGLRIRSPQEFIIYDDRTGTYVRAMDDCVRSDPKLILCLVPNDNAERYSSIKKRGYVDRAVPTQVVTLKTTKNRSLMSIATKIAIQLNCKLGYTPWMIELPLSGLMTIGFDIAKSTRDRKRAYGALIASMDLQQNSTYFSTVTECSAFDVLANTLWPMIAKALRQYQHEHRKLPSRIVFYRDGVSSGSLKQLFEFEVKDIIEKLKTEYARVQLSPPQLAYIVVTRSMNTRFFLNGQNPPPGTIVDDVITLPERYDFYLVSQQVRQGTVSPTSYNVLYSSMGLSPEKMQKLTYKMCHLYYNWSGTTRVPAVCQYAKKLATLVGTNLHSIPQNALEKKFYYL
The description is as above.

B1: Gtsf1/Asterix (Arx) (protein, UniProt Q8SWX0 1-167)
chain: MVYCPYNKEHKMLRKKLQQHILKCRVIYKDTVELMVCPFNSSHLIPEPQFFQHTQSCEDRNIIVHYQTSAPAVLSEDTRHAKIESEENWDDDESVPDYDPQVYCSRANIVREPNGLFPAQRRAFIEQEKRRHFGEDYEEEKKPRKAKARADLRPTPYEHRRPYSRRQ
As to B1, the binding result in test [1] and in test [2] was “binds” each time.
